From PMC8292527

The chains behind the UniProt entries cited, without tags or fusion partners. Residues count along the entry.
UniProt Q9H6X2, residues 33-564: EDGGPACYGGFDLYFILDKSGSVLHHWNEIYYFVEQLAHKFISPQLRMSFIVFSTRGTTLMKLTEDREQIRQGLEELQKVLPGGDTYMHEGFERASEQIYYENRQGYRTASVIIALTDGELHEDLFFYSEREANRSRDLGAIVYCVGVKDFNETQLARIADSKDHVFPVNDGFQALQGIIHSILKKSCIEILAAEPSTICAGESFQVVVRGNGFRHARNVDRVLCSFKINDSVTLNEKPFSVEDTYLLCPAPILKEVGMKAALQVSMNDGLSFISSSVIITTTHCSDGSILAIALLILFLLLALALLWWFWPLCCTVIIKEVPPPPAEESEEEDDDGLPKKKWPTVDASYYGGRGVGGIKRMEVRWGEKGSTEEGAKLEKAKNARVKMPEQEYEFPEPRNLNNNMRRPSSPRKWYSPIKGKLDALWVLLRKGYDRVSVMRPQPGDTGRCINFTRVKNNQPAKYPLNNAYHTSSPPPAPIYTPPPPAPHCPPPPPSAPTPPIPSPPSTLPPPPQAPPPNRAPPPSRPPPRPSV
UniProt P63092: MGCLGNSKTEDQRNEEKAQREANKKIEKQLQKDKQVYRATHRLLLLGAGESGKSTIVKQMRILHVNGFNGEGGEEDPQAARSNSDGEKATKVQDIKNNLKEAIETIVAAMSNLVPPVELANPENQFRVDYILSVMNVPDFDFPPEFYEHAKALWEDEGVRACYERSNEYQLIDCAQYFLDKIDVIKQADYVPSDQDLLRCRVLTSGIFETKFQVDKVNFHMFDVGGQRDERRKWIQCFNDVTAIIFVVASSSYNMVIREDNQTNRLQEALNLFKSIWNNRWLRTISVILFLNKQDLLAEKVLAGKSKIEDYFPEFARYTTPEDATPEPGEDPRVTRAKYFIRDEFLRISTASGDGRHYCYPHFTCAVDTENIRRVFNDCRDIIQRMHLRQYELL

Biological target: FLAG-tagged full length TEM8 (tumor endothelial marker 8) (human) (UniProt Q9H6X2)
Experiment: affinity purification with mass spectrometry; FLAG-beads IP from MDA-MB-231-TEM8 and SUM159-TEM8 cells against ctrl cells, cells treated with MG132 (20 uM, 2 h); on-bead trypsin digest, Orbitrap Elite, Maxquant; hits: LFQ intensity >10^6 in TEM8 groups and 0 in ctrl

guanine nucleotide-binding protein G(s) subunit alpha isoforms short (GNAS), endogenous (from UniProt P63092 1-394)
binding: binds

Results are given in words; binding and its absence hold for the method and conditions named. Binding seen in cells or lysates may run through a third protein. Here binding means that the protein was enriched with, or labelled near, the bait; the list need not be complete.
